PMC5081413
These are yes or no findings as the source states them, for the method shown. For part of these data: In cells and extracts the contact can be indirect. Some entries that bind do so weakly or less than the wild type.

By UniProt entry, the sequences of proteins in these tests, tags left out. Where a name states a change or a piece, a line headed by the entry shows the natural chain unless it says otherwise.
UniProt P62330, whole entry: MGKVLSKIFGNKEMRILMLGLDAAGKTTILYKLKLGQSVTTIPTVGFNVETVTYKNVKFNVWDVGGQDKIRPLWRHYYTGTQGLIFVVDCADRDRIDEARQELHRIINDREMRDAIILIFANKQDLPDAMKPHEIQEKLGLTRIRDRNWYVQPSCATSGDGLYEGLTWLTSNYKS

Assays:
Arf6-Y31Q = Arf6-Y31Q (UniProt P62330); assay: pull-down
[1] = molecular target: Arf1^QL-I49T (Arf1 Q71L, I49T; switch 1 mutant) (UniProt P84077); assay: pull-down; both purified
[2] = molecular target: Arf1^QL-I74T (Arf1 Q71L, I74T; switch 2 mutant) (UniProt P84077); assay: pull-down; both purified
[3] = molecular target: Arf1^QL-T45I (Arf1 Q71L, T45I; switch 1 mutant) (UniProt P84077); assay: pull-down; both purified
[4] = molecular target: Arf1^QL-Y35Q (Arf1 Q71L, Y35Q; alpha-1 helix mutant) (UniProt P84077); assay: pull-down; both purified
[5] = molecular target: Arf1^QL-Y81H (Arf1 Q71L, Y81H; switch 2 mutant) (UniProt P84077); assay: pull-down; both purified
[6] = molecular target: constitutively active GTP-bound myristoylated Arf1-Q71L (UniProt P84077); assay: pull-down; both purified
[7] = molecular target: recombinant myristoylated Arf6 activated with GTPγS (UniProt P62330); assay: pull-down; both purified

Row | Substance | binding (Arf6-Y31Q) | binding [1] | binding [2] | binding [3] | binding [4] | binding [5] | binding [6] | binding [7]
1 | EspG wild-type, recombinant (effector domain residues 48-398) (from UniProt Q7DB50 31-381) (domain or fragment) | binds | binds | binds | binds | no binding | binds | – | –
2 | EspGΔ^AΔ^P (EspG I152S, P351A, P355A), recombinant (from UniProt Q7DB50 31-381) (domain or fragment) | – | – | – | – | – | – | no binding | no binding
3 | EspGΔ^R (EspG Q293A), recombinant (from UniProt Q7DB50 31-381) (domain or fragment) | – | – | – | – | – | – | binds | –
